Measurements published in patent US7060678B2 (Dabur Research Foundation, priority 2003, dated 2006).
HELM strings list residues between dots; [ac] is acetyl, [am] amide, other brackets name non-standard units.

test: general procedure: Fmoc solid-phase peptide synthesis; Wang resin; DCC or DIPCDI/HOBt or HBTU/DIEA and PyBOP/DIEA; conditions: whole synthesis

| Substance | crude mass [mg] | isolated mass [mg] |
| --- | --- | --- |
| Leu-Met-Saa4-Tyr-Leu-Lys | 825 | – |
| Leu-Met-Tyr-Saa2-Thr-Tyr-Leu-Lys | 600 | – |
| Met-Saa4-Tyr-Leu | 209 | 86 |
| PEPTIDE1{L.M.Y.[Saa4].Y.L.K}$$$$V2.0 | 998 | – |
| PEPTIDE1{L.M.[Saa4].T.Y.L.K}$$$$V2.0 | 264 | – |
| PEPTIDE1{M.[Saa1].Y.L}$$$$V2.0 | 302 | 203 |

same assay, conditions: whole synthesis, analytical HPLC

| Substance | final HPLC purity [%] |
| --- | --- |
| PEPTIDE1{M.[Saa1].Y.L}$$$$V2.0 | >95 |
